PubChem BioAssay AID652243 – Drosophila RNAi Screening Center, 2013
The screen tested about 24,000 reagents; below is an unselected part of those that have a named target and a result. In the full data, 246 (1%) are marked active. 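Plates not normalised; calls are printed but the firefly/Renilla ratio behind them is not deposited; fold cut for lowering reported inconsistently.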 Raw values vary from plate to plate and are shown uncorrected. Entries without a mark were called inactive. The numbers tell different reagents against one gene apart. Names joined by + are all predicted targets of the reagent. Reagent sequences are not shown. The record does not give: the amount of reagent.

Assay: 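Fly regulators of androgen-dependent reporter output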 (primary screen)
Cell system: Drosophila S2R+ cells
Knock-down reagent: long dsRNA against Drosophila genes
Duration: 72 h (48 h, then 24 h hormone)
Conditions: synthetic androgen R1881 at 10 nM for 24 h
Read-out: 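Per-well raw luminescence of the androgen-driven firefly reporter and of the Renilla control, two replicates each, without normalisation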
Direction: firefly reporter light: higher = more light from androgen-responsive reporter; Renilla control light: higher = more constitutive control signal (cell number, transfection)
Active means: 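Hit when the log firefly-to-Renilla ratio dropped or increased by a fixed fold versus the mean of GFP or LacZ controls across duplicate plates; lowering cut given as 1.5 and as 3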
Calls: active = hit: reporter lowered or raised; inactive = no hit

With knock-down of CG2852 #1 the results were firefly reporter light, replicate 1 = 2.48e5; firefly reporter light, replicate 2 = 3.80e5; Renilla control light, replicate 1 = 2.01e6; Renilla control light, replicate 2 = 1.42e6.
Depletion of CG2852 #2 resulted in: firefly reporter light, replicate 1 = 7.51e5; firefly reporter light, replicate 2 = 4.03e5; Renilla control light, replicate 1 = 2.80e6; Renilla control light, replicate 2 = 1.94e6.
ALiX (ALG-2 interacting protein X) #1 gave firefly reporter light, replicate 1 = 58967; firefly reporter light, replicate 2 = 86857; Renilla control light, replicate 1 = 8.09e5; Renilla control light, replicate 2 = 7.67e5.
Depletion of ALiX (ALG-2 interacting protein X) #2 came out at: firefly reporter light, replicate 1 = 5.42e5; firefly reporter light, replicate 2 = 4.89e5; Renilla control light, replicate 1 = 8.57e5; Renilla control light, replicate 2 = 5.50e5.
Hsp70Bb + Hsp70Bbb showed firefly reporter light, replicate 1 = 4.43e5; firefly reporter light, replicate 2 = 1.05e6; Renilla control light, replicate 1 = 9.67e5; Renilla control light, replicate 2 = 1.98e6.
Silencing of Pax (Paxillin) #1 gave: firefly reporter light, replicate 1 = 1.80e5; firefly reporter light, replicate 2 = 2.11e5; Renilla control light, replicate 1 = 3.94e5; Renilla control light, replicate 2 = 4.96e5.
After knock-down of Pax (Paxillin) #2 the results were firefly reporter light, replicate 1 = 7.91e5; firefly reporter light, replicate 2 = 5.97e5; Renilla control light, replicate 1 = 2.08e6; Renilla control light, replicate 2 = 2.09e6.
Against Pax (Paxillin) #3 the deposit lists firefly reporter light, replicate 1 = 2.53e5; firefly reporter light, replicate 2 = 3.09e5; Renilla control light, replicate 1 = 2.91e6; Renilla control light, replicate 2 = 2.63e6.

Look-ups from the entries so far:
Under “firefly reporter light, replicate 2”, CG2852 #2 is entered as 4.03e5
Entry for Pax (Paxillin) #2 under “Renilla control light, replicate 2”: 2.09e6

The listing continues.
CG14285 gave firefly reporter light, replicate 1 = 2.38e5; firefly reporter light, replicate 2 = 2.40e5; Renilla control light, replicate 1 = 2.62e6; Renilla control light, replicate 2 = 2.98e6.
After knock-down of CG18449 the results were firefly reporter light, replicate 1 = 3.98e5; firefly reporter light, replicate 2 = 3.35e5; Renilla control light, replicate 1 = 2.08e6; Renilla control light, replicate 2 = 1.42e6.
Knock-down of nur (nemuri) #1 came out at: firefly reporter light, replicate 1 = 2.05e5; firefly reporter light, replicate 2 = 2.16e5; Renilla control light, replicate 1 = 6.42e5; Renilla control light, replicate 2 = 6.25e5.
Silencing of nur (nemuri) #2 came out at: firefly reporter light, replicate 1 = 1.82e5; firefly reporter light, replicate 2 = 3.68e5; Renilla control light, replicate 1 = 4.34e5; Renilla control light, replicate 2 = 4.34e5.
